Values of other authors, collected in patent US9040586B2, “Veterinary compositions for controlling ecto- and endoparasites in bovines, use of these compositions, use of IGR substances associated with microminerals, method for controlling ecto- and endoparasites in bovines and kit” (Champion Farmoquimico Ltda., priority 2012, dated 2015).
At least one structure is not confirmed: it was looked up by name or label, or the drawing left a doubt.

How the values were obtained:
Cooperia spp. = details: 14 days after treatment; injectable; control 98.5%; cited from earlier work
[1] = test system: gastrointestinal nematodes of cattle; details: 19 farms; cited from earlier work

In the case of `CO/N=C1\C[C@]2(C[C@@H]3C[C@@H](C/C=C(\C)C[C@@H](C)/C=C/C=C4\CO[C@@H]5[C@H](O)C(C)=C[C@@H](C(=O)O3)[C@]45O)O2)O[C@H](/C(C)=C/C(C)C)[C@H]1C` [Moxidectin], the “Cooperia spp. females recovered at necropsy with eggs inside the uterus” value (Cooperia spp.) is given as 48.2% and the FECR [1] is given as 100%.
